These are yes or no findings as the source states them, for the method shown. Binding seen in cells or lysates may run through a third protein. Some results given as binding are weak or reduced against the parent protein; the word gives no strength.
Columns and labels:
[1] = target: β-catenin (mouse (endogenous in MLO-Y4 and MC3T3-E1)) (UniProt Q02248); assay: co-IP; endogenous proteins; Np-40 lysate (1 μg/μL) of MLO-Y4 and of MC3T3-E1 cells, pre-cleaned with protein G magnetic beads; precipitated with 10 μg rabbit-anti-mouse β-catenin antibody and protein G magnetic beads; rabbit IgG as control; Western blot for Cx43
[2] = target: connexin 43 (mouse (endogenous in MLO-Y4 and MC3T3-E1)) (UniProt P23242); assay: co-IP; endogenous proteins; Np-40 lysate (1 μg/μL) of MLO-Y4 and of MC3T3-E1 cells, pre-cleaned with protein G magnetic beads; precipitated with 10 μg rabbit-anti-mouse Cx43 antibody and protein G magnetic beads; rabbit IgG as control; Western blot for β-catenin

By UniProt entry, the sequences of proteins in these tests, tags left out.
UniProt Q02248: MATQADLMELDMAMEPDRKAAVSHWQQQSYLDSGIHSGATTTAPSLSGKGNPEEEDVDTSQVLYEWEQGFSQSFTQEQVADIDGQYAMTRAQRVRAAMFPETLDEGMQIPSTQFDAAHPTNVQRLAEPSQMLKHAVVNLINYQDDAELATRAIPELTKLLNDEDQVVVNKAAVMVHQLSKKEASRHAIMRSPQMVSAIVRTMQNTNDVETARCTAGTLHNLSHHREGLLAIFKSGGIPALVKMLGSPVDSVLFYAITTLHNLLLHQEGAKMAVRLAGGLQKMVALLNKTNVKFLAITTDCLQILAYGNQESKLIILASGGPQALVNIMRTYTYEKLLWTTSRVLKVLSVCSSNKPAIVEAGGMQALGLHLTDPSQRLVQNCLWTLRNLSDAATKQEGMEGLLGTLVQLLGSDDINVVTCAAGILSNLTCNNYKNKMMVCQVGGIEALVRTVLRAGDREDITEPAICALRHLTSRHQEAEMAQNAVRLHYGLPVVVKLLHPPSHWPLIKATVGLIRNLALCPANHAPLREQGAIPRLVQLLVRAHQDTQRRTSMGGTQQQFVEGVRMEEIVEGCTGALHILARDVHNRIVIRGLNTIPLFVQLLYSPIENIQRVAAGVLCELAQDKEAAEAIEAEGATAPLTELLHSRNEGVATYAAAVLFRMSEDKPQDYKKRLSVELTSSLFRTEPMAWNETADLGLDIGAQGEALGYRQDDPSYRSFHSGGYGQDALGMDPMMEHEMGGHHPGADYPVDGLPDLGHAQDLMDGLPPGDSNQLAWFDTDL
UniProt P23242: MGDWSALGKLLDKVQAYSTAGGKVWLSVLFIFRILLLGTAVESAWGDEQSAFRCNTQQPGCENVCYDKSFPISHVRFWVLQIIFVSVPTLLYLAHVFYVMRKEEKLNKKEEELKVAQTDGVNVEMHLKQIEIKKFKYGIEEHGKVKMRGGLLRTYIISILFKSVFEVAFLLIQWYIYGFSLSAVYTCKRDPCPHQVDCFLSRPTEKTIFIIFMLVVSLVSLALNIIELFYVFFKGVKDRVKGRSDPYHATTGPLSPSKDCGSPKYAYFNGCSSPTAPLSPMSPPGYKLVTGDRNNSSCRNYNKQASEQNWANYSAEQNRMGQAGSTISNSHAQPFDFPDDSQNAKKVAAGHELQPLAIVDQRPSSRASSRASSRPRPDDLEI

binding [1]	binding [2]	Substance
binds	–	connexin 43 (from UniProt P23242 1-382)
–	binds	β-catenin (from UniProt Q02248 1-781)

From publication PMC10342113
